PubChem BioAssay AID1347423 (Functional Genomics Laboratory (NCATS/FGL), 2020)
The whole screen tested about 52,000 sequences, of which about 210 (0.4%) were called active.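 How the source made its calls: active means gene whose silencing raises cell survival under the drug, median off-target-corrected z-score across its silencing RNAs 2 or more; inactive means the rest.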 Some of the results follow.

assay: Resistance to Poly (ADP-Ribose) Polymerase inhibitor: Gene Identification via Genome-wide siRNA Screen; conditions: mouse BRCA2 R2336H ES cells, olaparib, CellTiter-Glo viability; active compounds read high
Procedure, shortened: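 Genome-wide siRNA screen (3 siRNAs/gene, 20 nM) in mouse ES cells carrying hypomorphic BRCA2 R2336H; olaparib 500 nM added 48 h post-transfection, CellTiter-Glo viability 72 h later. Normalized to plate-median negative control; MAD z-scores, gene median, seed-adjusted.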

Question: Which z-score does the source give for GGAAACACGUCUCCUCCAUTT against Krt2-25 here?
Answer: inactive: -0.0404

Question: Which z-score does the source give for GCCACCUUUAAAGAACCUUTT against Zfhx1a here?
Answer: inactive: -1.56

Question: With GGAGCAGGAAGUAUGAAUGTT against Gpr39 as the sequence, how does the z-score read?
Answer: inactive: 0.593

Question: Which z-score does the source give for GGAGGAGUUUGACUUCGACTT against Alox12 here?
Answer: inactive: -0.128

Question: With “GGAUUAGAAGAACUAAGAGTT against 4930418G15Rik” as the sequence, how does the z-score read?
Answer: inactive: 0.532

Question: With CCAGUUUAGUGGCUCUUCCTT against Lrpb7 as the sequence, how does the z-score read?
Answer: inactive: 0.415

Question: Which z-score does the source give for CCUCGUAAGCGUGUGGAUUTT against Gm1100 here?
Answer: inactive: -0.36

Question: For CCUGAGUCUCGGUUCACAATT against Kif12, which z-score is on record?
Answer: inactive: -1.37

Question: For GCUCAUGACCCAUAUGUGGTT against Cryaa, which z-score is on record?
Answer: inactive: -0.217

Question: With CCUGCCCUCUUUUAAAUAATT against Ap3s1 as the sequence, how does the z-score read?
Answer: inactive: 0.136

Question: For GGUCCAUUUUUUGGUGUGCTT against BC051665, which z-score is on record?
Answer: inactive: -1.11

Question: Which z-score does the source give for GGAGCUAAGUCGAAGCUUCTT against Gmppa here?
Answer: inactive: 1.16

Question: Which z-score does the source give for GGAGACUAAUGAACAGAAATT against Fgd4 here?
Answer: inactive: -0.16

Question: Which z-score does the source give for GCCCAAUUGGCUUUUGUUATT against Olfr1305 here?
Answer: inactive: 0.264

Question: For GCUCUCUGAAAGAGUAUUGTT against Khdrbs2, which z-score is on record?
Answer: inactive: -0.0883

Question: Which z-score does the source give for “CCGCCAUGUUCAUUGAAGATT against 2210013K02Rik” here?
Answer: inactive: -0.0947

Question: Which z-score does the source give for GCAACCAUCCAACAACCUGTT against Prkca here?
Answer: inactive: -0.00416

Question: Which z-score does the source give for GGCCAUCUGUGAAAAAUUCTT against Dhcr24 here?
Answer: inactive: 1.4

Question: With “GGAAAAACUGAGAAAACUUTT against 4930404J24Rik” as the sequence, how does the z-score read?
Answer: inactive: -0.447

Question: With GCUCUUGUAAAUUUGUGAATT against Usp10 as the sequence, how does the z-score read?
Answer: inactive: -1.02

Question: For CGUGGAUUACCACCCUAAGTT against Klrc2, which z-score is on record?
Answer: inactive: 0.387

Question: Which z-score does the source give for GGACGUGAAUGUGUUUGACTT against Cyp26b1 here?
Answer: inactive: 0.429

Question: For CGGAGUAAACAAUACAGUCTT against Gnmt, which z-score is on record?
Answer: inactive: -0.312

Question: With CCUUUUAGCUCUGUGUAUUTT against Gldc as the sequence, how does the z-score read?
Answer: inactive: 0.597

Question: With GGUAUCACAUCAACAGGCCTT against Klk8 as the sequence, how does the z-score read?
Answer: inactive: -0.171

Question: Which z-score does the source give for CCAGUGUUGGUAACAAUAUTT against Stat4 here?
Answer: inactive: 0.522

Question: For “GGAUUCCAUGGACAAAACUTT against E030041M21Rik”, which z-score is on record?
Answer: inactive: 2.17

Question: Which z-score does the source give for “GCAGCUGAGAAAGUCGUUCTT against 2010007H12Rik” here?
Answer: inactive: -0.00273

Question: For “GGCUCAAGUUUGGAGUUUUTT against 2410137M14Rik”, which z-score is on record?
Answer: inactive: 0.411

Question: Which z-score does the source give for “GGUCCAAUUACUGAAGGUUTT against 1700094C09Rik” here?
Answer: inactive: -1.52

Question: Which z-score does the source give for “GGAAGAGCAACAUGUUUAATT against 5430400N05Rik” here?
Answer: inactive: 0.999

Question: With CCUCUAAAUCAAUGAGACATT against Zfp30 as the sequence, how does the z-score read?
Answer: inactive: 0.568

Question: Which z-score does the source give for GGAAAUUCUGAGGAAGAUUTT against Olfr744 here?
Answer: inactive: 0.204

Question: Which z-score does the source give for GGCCUGAAAUAUAUGCUGGTT against Cst7 here?
Answer: inactive: 0.761

Question: With GGUAAUGAUACCUUGAAUGTT against H60 as the sequence, how does the z-score read?
Answer: inactive: 1.88

Question: For GGAGUGGAAGAAGAAGUAUTT against Centg3, which z-score is on record?
Answer: inactive: -1.56

Question: With GGAUUUAGCCAAUCAAUCUTT against Cdc14b as the sequence, how does the z-score read?
Answer: inactive: 0.657

Question: Which z-score does the source give for GGUGAAGUCCCAGCUUGAATT against Cstb here?
Answer: inactive: -1.07

Question: With GGAAAUCCAUGAGAAGGUGTT against Ctbp2 as the sequence, how does the z-score read?
Answer: inactive: -1.18

Question: With GGCUGAAUGACUGCACUGGTT against Vamp5 as the sequence, how does the z-score read?
Answer: inactive: 1.5

Question: For GGAUGUGGAUGCUUACACCTT against Cdc23, which z-score is on record?
Answer: inactive: -2.31

Question: With CGGCUACGAGUGUGAACUGTT against Fgf7 as the sequence, how does the z-score read?
Answer: inactive: -0.206

Question: For “GCCAGUUUUGGUAUCCCGUTT against A330042H22”, which z-score is on record?
Answer: inactive: 1.21

Question: For GGCUUAUAUCUGAUUGAUGTT against Rom1, which z-score is on record?
Answer: inactive: -0.235

Question: For “CCACCUUUACGAUAAUGAUTT against 1700108L22Rik”, which z-score is on record?
Answer: inactive: 0.442

Question: Which z-score does the source give for GGUGGACUUCAACCUGAUUTT against Nodal here?
Answer: inactive: -0.636

Question: For GUGUGAACAGAGGCAGAAATT against Xlr3a, which z-score is on record?
Answer: inactive: -1.26

Question: With GGCAAUUGGCUUAAACACATT against Serpinb9c as the sequence, how does the z-score read?
Answer: inactive: 0.166

Question: For GGAGCAUCAUUAUUCUGCATT against Gm527, which z-score is on record?
Answer: inactive: 0.145

Question: With “GCCGGCAACACAUUUCUGUTT against 5330439J01Rik” as the sequence, how does the z-score read?
Answer: inactive: -0.131

Question: Which z-score does the source give for CCAAUAUCUCCAAAUAGAATT against Atp8b1 here?
Answer: inactive: 1.4

Question: With GGAUUUCCCAGGAAGCGAATT against 4-Sep as the sequence, how does the z-score read?
Answer: inactive: -0.724
